No constants are given. Whether binding was seen depends on the method and setting. In cells and extracts the contact can be indirect. Some results given as binding are weak or reduced against the parent protein; the word gives no strength. Tags and fused reporters may be left off the sequences shown.

Chains of the proteins cited; added tags and fusions are not shown.
UniProt P32120: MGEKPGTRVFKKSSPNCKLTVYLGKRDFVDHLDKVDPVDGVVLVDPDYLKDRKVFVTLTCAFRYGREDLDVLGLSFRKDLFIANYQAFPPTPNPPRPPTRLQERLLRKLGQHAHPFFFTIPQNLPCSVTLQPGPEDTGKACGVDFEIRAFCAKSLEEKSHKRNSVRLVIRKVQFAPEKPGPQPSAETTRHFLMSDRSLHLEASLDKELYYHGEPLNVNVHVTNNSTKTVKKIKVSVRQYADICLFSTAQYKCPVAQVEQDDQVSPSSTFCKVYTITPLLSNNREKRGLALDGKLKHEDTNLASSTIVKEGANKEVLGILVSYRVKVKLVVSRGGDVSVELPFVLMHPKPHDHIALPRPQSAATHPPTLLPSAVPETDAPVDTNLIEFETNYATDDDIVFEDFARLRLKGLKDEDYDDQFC

In this experiment the target is T1, chemokine-like receptor 1 fused to eYFP (hCMKLR1-eYFP) (human) (UniProt Q99788).
T1 sequence: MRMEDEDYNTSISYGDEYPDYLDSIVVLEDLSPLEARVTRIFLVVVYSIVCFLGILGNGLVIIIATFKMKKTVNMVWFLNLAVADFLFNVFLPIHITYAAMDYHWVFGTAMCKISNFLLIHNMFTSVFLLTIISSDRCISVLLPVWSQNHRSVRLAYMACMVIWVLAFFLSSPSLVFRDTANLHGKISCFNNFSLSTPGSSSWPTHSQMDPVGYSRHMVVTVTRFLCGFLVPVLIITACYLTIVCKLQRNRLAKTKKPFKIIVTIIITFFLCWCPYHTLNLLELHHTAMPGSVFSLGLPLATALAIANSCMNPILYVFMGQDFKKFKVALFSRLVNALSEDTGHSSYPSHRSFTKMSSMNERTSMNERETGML
The experiment can be described thus: FRET or BRET; HEK293 cells transiently co-transfected with hCMKLR1-eYFP (+ chimeric G protein) and Rluc8-arrestin3; stimulated with peptide 1 or 12; BRET read 15 min after stimulation at 37 °C in BRET buffer (HBSS, 25 mM HEPES, pH 7.3), coelenterazine-h 4.2 µM.

Consider “bovine arrestin-3 fused to Rluc8 (from UniProt P32120 1-420)”, for which the binding result was “binds”.

The values are drawn from PMC8345219 (Cancers, 2021).
